Results: paper PMC6471618, “Comparison of the Sulfonamide Inhibition Profiles of the α-Carbonic Anhydrase Isoforms (SpiCA1, SpiCA2 and SpiCA3) Encoded by the Genome of the Scleractinian Coral Stylophora pistillata” (Marine Drugs, 2019)

Amino acid sequences for entries named in this document (tags omitted).
UniProt A0A1B0Y357, entry or part of it: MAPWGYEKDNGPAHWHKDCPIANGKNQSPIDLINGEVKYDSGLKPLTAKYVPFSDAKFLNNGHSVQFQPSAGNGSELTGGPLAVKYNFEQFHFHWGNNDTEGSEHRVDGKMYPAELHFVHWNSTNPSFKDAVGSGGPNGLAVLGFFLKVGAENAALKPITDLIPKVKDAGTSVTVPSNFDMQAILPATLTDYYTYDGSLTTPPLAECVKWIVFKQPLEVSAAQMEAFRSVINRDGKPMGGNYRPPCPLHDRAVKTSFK

Molecular target: SpiCA3 (Stylophora pistillata, UniProt A0A1B0Y357)
Assay type: biochemical
Settings: recombinant coral isoform, stopped-flow CO2 hydration, 20 mM TRIS pH 8.3, 15 min preincubation; errors 5–10%, 3 assays
Method: An Applied Photophysics stopped-flow instrument (Leatherhead, Surrey (UK)) has been used for assaying the CA catalyzed CO2 hydration activity. […] The un-catalyzed rates were determined in the same manner and subtracted from the total observed rates. […] The inhibition constants were obtained by non-linear least-squares methods using PRISM 3 and the Cheng-Prusoff equation, as reported earlier, and represent the mean from at least three different determinations. All CA isoforms were recombinant ones obtained in-house. All salts/small molecules were of the highest purity available, from Sigma-Aldrich (Milan, Italy).

Ki: 0.354 µM
SMILES: CCN[C@H]1C[C@H](C)S(=O)(=O)c2sc(S(N)(=O)=O)cc21 [DZA, Dorzolamide]
